Reference: article doi:10.1101/2022.05.18.492252
Results are given in words; binding and its absence hold for the method and conditions named. Binding seen in cells or lysates may run through a third protein. Some binding calls cover weakened binding; strength is not graded here. Tags and fused reporters may be left off the sequences shown.

Protein sequences, listed by entry. Tags and fused reporters are not part of them. Residues count along the entry.
UniProt Q15363, residues 21-201: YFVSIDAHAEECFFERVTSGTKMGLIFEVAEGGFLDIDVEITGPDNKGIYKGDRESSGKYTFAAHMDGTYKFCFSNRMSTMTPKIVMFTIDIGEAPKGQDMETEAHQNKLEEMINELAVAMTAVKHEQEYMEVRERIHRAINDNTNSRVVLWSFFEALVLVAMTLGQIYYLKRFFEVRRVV

T1: GFP-VAPA (UniProt Q9P0L0)
T1 sequence: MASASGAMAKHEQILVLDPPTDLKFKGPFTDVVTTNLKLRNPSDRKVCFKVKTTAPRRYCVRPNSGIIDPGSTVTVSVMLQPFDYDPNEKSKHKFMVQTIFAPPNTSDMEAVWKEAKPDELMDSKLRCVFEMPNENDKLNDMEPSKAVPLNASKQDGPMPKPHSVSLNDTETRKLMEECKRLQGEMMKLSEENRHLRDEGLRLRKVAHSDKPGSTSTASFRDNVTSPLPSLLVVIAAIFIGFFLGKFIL

B1: TMED10, endogenous (protein, UniProt P49755 32-219)
chain: ISFHLPINSRKCLREEIHKDLLVTGAYEISDQSGGAGGLRSHLKITDSAGHILYSKEDATKGKFAFTTEDYDMFEVCFESKGTGRIPDQLVILDMKHGVEAKNYEEIAKVEKLKPLEVELRRLEDLSESIVNDFAYMKKREEEMRDTNESTNTRVLYFSIFSMFCLIGLATWQVFYLRRFFKAKKLIE

Target: T1, GFP-VAPA
Test: co-IP

| Molecule | binding |
| --- | --- |
| TMED2, endogenous (from UniProt Q15363 21-201) | binds |
| B1 | binds |
